Results are given in words; binding and its absence hold for the method and conditions named. Binding seen in cells or lysates may run through a third protein. Some results given as binding are weak or reduced against the parent protein; the word gives no strength. Tags and fused reporters may be left off the sequences shown.

By UniProt entry, the sequences of proteins in these tests, tags left out.
UniProt Q39255: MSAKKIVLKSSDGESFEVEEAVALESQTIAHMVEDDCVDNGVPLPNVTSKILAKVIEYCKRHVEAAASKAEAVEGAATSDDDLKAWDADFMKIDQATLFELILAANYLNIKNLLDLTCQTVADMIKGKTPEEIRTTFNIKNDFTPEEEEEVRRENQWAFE

The test addresses T1, AtMAX2 (At2g42620), N-terminal split YFP fusion (rBiFC) (Arabidopsis) (UniProt Q9SIM9).
T1 sequence: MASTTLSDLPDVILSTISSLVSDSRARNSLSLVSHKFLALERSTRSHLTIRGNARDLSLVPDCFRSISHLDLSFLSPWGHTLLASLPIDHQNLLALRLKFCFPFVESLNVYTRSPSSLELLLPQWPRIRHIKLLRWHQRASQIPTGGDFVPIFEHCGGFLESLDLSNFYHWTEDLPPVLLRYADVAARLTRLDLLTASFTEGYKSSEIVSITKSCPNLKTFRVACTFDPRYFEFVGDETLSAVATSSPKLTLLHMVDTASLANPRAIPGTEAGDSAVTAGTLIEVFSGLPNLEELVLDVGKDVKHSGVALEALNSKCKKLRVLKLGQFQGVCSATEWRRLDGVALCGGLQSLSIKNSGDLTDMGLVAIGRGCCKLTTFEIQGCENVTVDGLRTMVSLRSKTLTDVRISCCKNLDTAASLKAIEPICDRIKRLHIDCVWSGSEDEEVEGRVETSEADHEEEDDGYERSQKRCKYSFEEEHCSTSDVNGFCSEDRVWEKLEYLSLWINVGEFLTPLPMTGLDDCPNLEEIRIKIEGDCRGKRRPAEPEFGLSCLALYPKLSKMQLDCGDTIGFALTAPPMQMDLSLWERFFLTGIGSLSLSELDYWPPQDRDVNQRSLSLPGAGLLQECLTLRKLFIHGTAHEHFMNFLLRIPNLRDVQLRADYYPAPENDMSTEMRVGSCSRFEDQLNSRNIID
The test is described as follows: split reporter; ratiometric BiFC (2in1 vector, N-terminal split YFP fusions, constitutive RFP cassette) in tobacco leaf epidermal cells; confocal microscopy, nuclear YFP/RFP ratio.

Turning to “AtSKP1 (At1g75950), N-terminal split YFP fusion (rBiFC) (from UniProt Q39255 1-160)”, the binding entry is “binds”.

For the origin of these results see PMC12733757.
